From the supplement of paper PMC13380429
Most of the hits are listed elsewhere, so they are rarer here than in the full data.

Tested on: Vero E6 infected with SARS-CoV-2
Test: inhibition of SARS-CoV-2 cytopathic effect; higher = more antiviral protection, active = above 15
Settings: 48 h

Measured: inhibition of SARS-CoV-2 cytopathic effect

Oc1cc2c(c(Cl)c1O)CCNCC2c1ccccc1 (stereo not given)
inactive: 1 nM 0.35% | 8.33 nM 0.05% | 100 nM 0.33% | 833.33 nM -2.1% | 10000 nM -1.13%
